Results on three molecules are retold here after patent US20250283871A1, “COMPOSITIONS AND METHODS FOR MODULATING THE INTERACTION BETWEEN SS18-SSX FUSION ONCOPROTEIN AND NUCLEOSOMES” (Dana-Farber Cancer Institute, Inc., priority 2020, published 2025).

This series relates to BAF complex subunits and histone proteins. The experiment in a line: Mass spectrometry proteomics of purified HA-SS18 WT and HA-SS18-SSX1 complexes (Tables 5A-5E). On the set-up: species or system human. Conditions: for Total / Unique: HA-SS18SSX1_CHR_peptides; for Total: total peptides of the identified protein; for Unique: unique peptides of the identified protein; for Total (total peptides) / Unique (unique peptides): HA-SS18WT_CHR_peptides: protein identified in HA-SS18 WT BAF complex purification from nuclease-treated solubilized chromatin (CHR).

Setting [1] is: HA-SS18WT_CHR_peptides: HA-SS18 WT purification from nuclease-treated solubilized chromatin (CHR), HEK-293T, label = protein identified.

B1: CBX2 (protein, UniProt Q14781 1-532, looked up)
Chromobox protein homolog 2: MEELSSVGEQVFAAECILSKRLRKGKLEYLVKWRGWSSKHNSWEPEENILDPRLLLAFQKKEHEKEVQNRKRGKRPRGRPRKLTAMSSCSRRSKLKEPDAPSKSKSSSSSSSSTSSSSSSDEEDDSDLDAKRGPRGRETHPVPQKKAQILVAKPELKDPIRKKRGRKPLPPEQKATRRPVSLAKVLKTARKDLGAPASKLPPPLSAPVAGLAALKAHAKEACGGPSAMATPENLASLMKGMASSPGRGGISWQSSIVHYMNRMTQSQAQAASRLALKAQATNKCGLGLDLKVRTQKGELGMSPPGSKIPKAPSGGAVEQKVGNTGGPPHTHGASRVPAGCPGPQPAPTQELSLQVLDLQSVKNGMPGVGLLARHATATKGVPATNPAPGKGTGSGLIGASGATMPTDTSKSEKLASRAVAPPTPASKRDCVKGSATPSGQESRTAPGEARKAATLPEMSAGEESSSSDSDPDSASPPSTGQNPSVSVQTSQDWKPTRSLIEHVFVTDVTANLITVTVKESPTSVGFFNLRHY
Turning to B1, the Total is given as 3 and the Unique is reported as 3. Moreover, under “HEK-293T”, the “Total (total peptides)” value was 2 and the “Unique (unique peptides)” value came to 2.

B2: RRP12 (protein, UniProt Q5JTH9 1-1297, looked up)
RRP12-like protein: MGRSGKLPSGVSAKLKRWKKGHSSDSNPAICRHRQAARSRFFSRPSGRSDLTVDAVKLHNELQSGSLRLGKSEAPETPMEEEAELVLTEKSSGTFLSGLSDCTNVTFSKVQRFWESNSAAHKEICAVLAAVTEVIRSQGGKETETEYFAALMTTMEAVESPESLAAVAYLLNLVLKRVPSPVLIKKFSDTSKAFMDIMSAQASSGSTSVLRWVLSCLATLLRKQDLEAWGYPVTLQVYHGLLSFTVHPKPKIRKAAQHGVCSVLKGSEFMFEKAPAHHPAAISTAKFCIQEIEKSGGSKEATTTLHMLTLLKDLLPCFPEGLVKSCSETLLRVMTLSHVLVTACAMQAFHSLFHARPGLSTLSAELNAQIITALYDYVPSENDLQPLLAWLKVMEKAHINLVRLQWDLGLGHLPRFFGTAVTCLLSPHSQVLTAATQSLKEILKECVAPHMADIGSVTSSASGPAQSVAKMFRAVEEGLTYKFHAAWSSVLQLLCVFFEACGRQAHPVMRKCLQSLCDLRLSPHFPHTAALDQAVGAAVTSMGPEVVLQAVPLEIDGSEETLDFPRSWLLPVIRDHVQETRLGFFTTYFLPLANTLKSKAMDLAQAGSTVESKIYDTLQWQMWTLLPGFCTRPTDVAISFKGLARTLGMAISERPDLRVTVCQALRTLITKGCQAEADRAEVSRFAKNFLPILFNLYGQPVAAGDTPAPRRAVLETIRTYLTITDTQLVNSLLEKASEKVLDPASSDFTRLSVLDLVVALAPCADEAAISKLYSTIRPYLESKAHGVQKKAYRVLEEVCASPQGPGALFVQSHLEDLKKTLLDSLRSTSSPAKRPRLKCLLHIVRKLSAEHKEFITALIPEVILCTKEVSVGARKNAFALLVEMGHAFLRFGSNQEEALQCYLVLIYPGLVGAVTMVSCSILALTHLLFEFKGLMGTSTVEQLLENVCLLLASRTRDVVKSALGFIKVAVTVMDVAHLAKHVQLVMEAIGKLSDDMRRHFRMKLRNLFTKFIRKFGFELVKRLLPEEYHRVLVNIRKAEARAKRHRALSQAAVEEEEEEEEEEEPAQGKGDSIEEILADSEDEEDNEEEERSRGKEQRKLARQRSRAWLKEGGGDEPLNFLDPKVAQRVLATQPGPGRGRKKDHGFKVSADGRLIIREEADGNKMEEEEGAKGEDEEMADPMEDVIIRNKKHQKLKHQKEAEEEELEIPPQYQAGGSGIHRPVAKKAMPGAEYKAKKAKGDVKKKGRPDPYAYIPLNRSKLNRRKKMKLQGQFKGLVKAARRGSQVGHKNRRKDRRP
For the molecule B2, the Total is reported as 3 and the Unique was determined as 3. Moreover, under setting [1], the “Total (peptides)” value is given as 4 and the “Unique (peptides)” value turned out to be 3.

B3: RPF2 (protein, UniProt Q9H7B2 1-306, looked up)
Ribosome production factor 2 …: MDTLDRVVKPKTKRAKRFLEKREPKLNENIKNAMLIKGGNANATVTKVLKDVYALKKPYGVLYKKKNITRPFEDQTSLEFFSKKSDCSLFMFGSHNKKRPNNLVIGRMYDYHVLDMIELGIENFVSLKDIKNSKCPEGTKPMLIFAGDDFDVTEDYRRLKSLLIDFFRGPTVSNIRLAGLEYVLHFTALNGKIYFRSYKLLLKKSGCRTPRIELEEMGPSLDLVLRRTHLASDDLYKLSMKMPKALKPKKKKNISHDTFGTTYGRIHMQKQDLSKLQTRKMKGLKKRPAERITEDHEKKSKRIKKN
Take B3: the Total was 3 and the Unique was 3. For the setting “HEK-293T”, the “Total (total peptides)” value is 2 and the “Unique (unique peptides)” value was 2.
